In PubChem BioAssay (EPA / NIEHS):
The shares of active, inactive and inconclusive entries below differ from those in the screen. Potencies beside an inconclusive call are fits to weak or partial responses and may not hold up. Calls of active or inactive are those of the source. How the source made its calls: active means hit-call score of the fitted dose curve at least 0.9, where 1 is the maximum; inconclusive means response in the unintended direction; inactive means score below 0.9.

system: frog Estrogen Receptor (ESR1), gene 398734; experiment: ATG_frER1_XSP1: Attagene TRANS-FACTORIAL Multi-Species (XSP1) HepG2 Assay for frog Estrogen Receptor (ESR1) (AID 2283777)
Description: ATG_XSP1_multi-species_TRANS is a cell-based, multiplexed assay created by modifying the existing Attagene TRANS-FACTORIAL system to include a panel of nuclear receptors from some or all the following species: human (Homo sapiens), mouse (Mus musculus), frog (Xenopus laevis), zebrafish (Danio rerio), chicken (Gallus gallus), and turtle (Chrysemys picta). The ECOTOX-FACTORIAL format uses HepG2, a human liver cell line, with measurements taken at 24 hours after chemical dosing in a 24-well plate. Xsp1 included 3 nM 6-alpha-fluorotestosterone to partially stimulate the androgen receptor.ATG_frER1_XSP1 is one of 29 assay components measured or calculated from the ATG_XSP1_multi-species_TRANS assay. It is designed to make measurements of mRNA induction, a form of inducible reporter, as detected with fluorescence intensity signals by Reverse transcription polymerase chain reaction (RT-PCR) and Capillary electrophoresis technology.The assay endpoint ATG_frER1_XSP1 was analyzed in the positive analysis fitting direction relative to DMSO as the negative control and baseline of activity. Using a type of inducible reporter, measures of mRNA for gain-of-signal activity can be used to understand the reporter gene at the transcription factor-level as they relate to the gene ER. Furthermore, this assay endpoint can be referred to as a primary readout, because this assay has produced multiple assay endpoints where this one serves a reporter gene function. To generalize the intended target to other relatable targets, this assay endpoint is annotated to the nuclear receptor intended target family, where the subfamily is steroidal.
Human liver HepG2 cells are transiently transfected with multiple reporter transcription units (MRTUs) in 6-well plates using FuGene 6 reagent (Roche; 3 ml FuGene/1 mg DNA). The MRTU constructs are regulated by a cis-regulating element (promoter). […] A major difference between the CIS and TRANS system is that in CIS activities of endogenous TFs are measured, whereas the TRANS assay evaluates changes in activities of exogenous, chimeric NR-Gal4 proteins. […] At the end of 24 hour incubation, total RNA was isolated using TriZol reagent (Invitrogen). The isolated RNA is then reverse-transcribed using oligo(dT) primer and Mo-MLV reverse transcriptase (Invitrogen) with DNAse I (Ambion) treatment for 30 min. The one-tenth of the produced cDNA was amplified by PCR using Taq DNA polymerase (Invitrogen) and two reporter sequence-specific primers. The PCR products were fluorescently labeled by primer extension with 6-arboxyfluorescein (6-FAM) 5'-labeled reporter sequence-specific primer (2 min at 95 C, 20 s at 68 C and 10 min at 72 C) and these products were digested with 5U of HpaI (New England Biolabs) for 2h at 37 C. The fragments were purified using Qiaquick PCR columns (Qiagen), analyzed on an ABI 3130xL genetic analyzer (Applied Biosystems) with peak positions identified by using a set of X-rhodamine (ROX)-labeled MapMarker1000 molecular weight standards (BioVentures). The raw capillary electrophoresis data was processed using Attagraph software (Attagene).

| Compound | AC50 | outcome |
| --- | --- | --- |
| CCCN(CCOc1c(Cl)cc(Cl)cc1Cl)C(=O)n1ccnc1 | inconclusive: 33.4 µM | – |
| O=C1C2(Cl)C3(Cl)C4(Cl)C(Cl)(Cl)C5(Cl)C3(Cl)C1(Cl)C5(Cl)C24Cl (centres undefined) | active: 0.271 µM | – |
| ClC(Cl)=C(c1ccc(Cl)cc1)c1ccc(Cl)cc1 | – | inactive |
| CCCCNC(=O)OCC#CI | inconclusive: 11.1 µM | – |
| C[C@]12C=CC3=C4CCC(=O)C=C4CC[C@H]3[C@@H]1CC[C@@H]2O | – | inactive |
| CCOCN(C(=O)CCl)c1c(C)cccc1CC | inconclusive: 172 µM | – |
| CO/C=C(/C(=O)OC)c1ccccc1Oc1cc(Oc2ccccc2C#N)ncn1 | inconclusive: 1 µM | – |
| CC(=O)c1cc2c(cc1C)C(C)(C)C(C)CC2(C)C (centres undefined) | inconclusive: 145 µM | – |
| CC(C)(O)C(=O)Nc1ccc([N+](=O)[O-])c(C(F)(F)F)c1 | inconclusive: 50 µM | – |
| C[C@]12CCC(=O)C=C1CC[C@@H]1[C@@H]2CC[C@@]2(C)[C@H]1CC[C@]2(C)O | active: 0.00297 µM | – |
| CC1(C)C(C=C(Cl)Cl)C1C(=O)OC(C#N)c1cccc(Oc2ccccc2)c1 (centres undefined) | active: 2.24 µM | – |
| Oc1ccc(C(c2ccc(O)cc2)(C(F)(F)F)C(F)(F)F)cc1 | inconclusive: 1 µM | – |
| CCCOCC(=Nc1ccc(Cl)cc1C(F)(F)F)n1ccnc1 | inconclusive: 11.1 µM | – |
| C=CC1(C)OC(=O)N(c2cc(Cl)cc(Cl)c2)C1=O (centres undefined) | – | inactive |
| CC(C)CCCCCCCOC(=O)c1ccccc1C(=O)OCCCCCCCC(C)C | inconclusive: 100 µM | – |
| CCCCCOC(=O)c1ccccc1C(=O)OCCCCC | – | inactive |
| CCC[CH2][Sn]([Cl])([CH2]CCC)[CH2]CCC | – | inactive |
| COP(=O)(OC)O/C(=C\Cl)c1cc(Cl)c(Cl)cc1Cl | inconclusive: 100 µM | – |
| Oc1cc(Cl)ccc1Oc1ccc(Cl)cc1Cl | – | inactive |
